58 compounds from PubChem BioAssay AID445 (National Center for Advancing Translational Sciences (NCATS), 2006) can be followed below.

The other results are listed elsewhere or left out. The main result of the screen is listed elsewhere. These columns were measured beside it and carry no call. Compounds called inactive in the main read-out are mostly missing here. Words in brackets tell the shape of the fitted curve; partial curves, single points and poor fits give uncertain potencies.

The experiment is described as follows: IkB Signaling. The settings on record: ABC-DLBCL IkBa-CBG/CBR dual luciferase ratio (green luciferase fused to IkBa over red control in OCI-Ly3 lymphoma cells), 4 h. The gist of the method: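 Curves were fitted separately to fusion (green), unfused (red) and ratio luminescence, then classed by r2, magnitude and activity. Cells: OCI-Ly3, 4 h compound plus doxycycline at 37C; 10 uM MG-132 defined full response.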
Where [1] appears, read: measured here: control luc red channel unless noted.

Turning to `COc1ccc(-c2nc3scc(CCNS(=O)(=O)c4ccc(Oc5ccccc5)cc4)n3n2)cc1OC`, the AC50 under setting [1] is 2.51 µM [rising, full curve].

Regarding `O=C(CNC(=O)c1ccccc1)OCc1cc(=O)n2nc(C3CCCCC3)sc2n1`, the concentration at half-maximal activity (AC50) under setting [1] is 0.126 µM [rising, full curve].

Consider `CCN(CC)C(=O)c1sc2c(c1C)c(=O)n(Cc1ccccc1)c(=O)n2Cc1ccccc1C`, for which the half-maximal activity concentration (AC50) under setting [1] was 25.1 µM [falling, partial curve].

Turning to `COC(=O)C1C(=O)C2=C(CC1C)NC(C)=C(C(=O)OCCOc1ccccc1)C2c1ccc(C)o1` (centres undefined), under setting [1], the AC50 is 10 µM [falling, partial curve].

Turning to `CC(=O)c1cccc(NC(=O)Nc2sc3nc4n(c(=O)c3c2C)CCC(C)CC4)c1` (centres undefined), the half-maximal activity concentration (AC50) under setting [1] is 1 µM [falling, single point].

On to `COc1ccc(Cn2cc(S(=O)(=O)c3ccc(C)cc3)c(=O)c3cc(F)ccc32)cc1`, for which the AC50 under setting [1] is 39.8 µM [falling, single point].

For the compound `COc1ccc2c(CNCCc3ccc(SC)cc3)c(C(=O)O)n(Cc3ccc(F)cc3)c2c1`, under setting [1], the AC50 was 25.1 µM [falling, partial curve].

Take `Cc1cccc(CN2C(=O)c3ccccc3Sc3ccc(C(=O)NCc4ccco4)cc32)c1`: the AC50 under setting [1] is 12.6 µM [falling, partial curve].

Consider `CCS(=O)(=O)c1ncc(Cl)c(C(=O)N2CCN(c3ccc(OC)cc3)CC2)n1`, for which the AC50 runs as follows: (measured here: IkB-luc green channel) 5.01 µM [rising, single point]; (measured here: control luc red channel) 7.94 µM [falling, full curve].

Take `O=c1c2ccccc2nc(/C=C/c2cccc3ccccc23)n1-c1ccc(F)cc1F`: under setting [1], the AC50 is 20 µM [falling, single point].

Regarding `CCC(CC)C(=O)Nc1nnc(S(=O)(=O)N2CCCCCC2)s1`, the half-maximal activity concentration (AC50) under setting [1] is 2.51 µM [rising, full curve].

`CCC(Sc1nc2c(sc3ccccc32)c(=O)n1CCc1ccc(OC)c(OC)c1)C(=O)N(CC)CC` (centres undefined): the AC50 under setting [1] is 10 µM [falling, partial curve].

Consider `CCOc1ccc(NC(=O)CSC2=Nc3ccccc3C3=NC(CC(=O)NCc4cccs4)C(=O)N23)cc1` (centres undefined), for which the concentration at half-maximal activity (AC50) under setting [1] is 2 µM [falling, full curve, poor fit].

In the case of `Cc1ccc(-c2cn3c(n2)sc2cc(C(=O)NCCCN4CCCCCC4)ccc23)cc1`, the concentration at half-maximal activity (AC50) under setting [1] is 10 µM [falling, partial curve].

`Cc1cccc(N2CCN(C(=O)Cn3sc4nc(C)cc(C)c4c3=O)CC2C)c1` (centres undefined): under setting [1], the AC50 was 39.8 µM [falling, single point].

`CC1=C(c2ccc(C)c(C)c2)S(=O)(=O)N=C1N1CCC(C(=O)NC(C)c2ccccc2)CC1` (centres undefined): under setting [1], the AC50 is 39.8 µM [falling, single point].

In the case of `CC(CCc1ccccc1)NC(=O)Cn1c(=O)nc(-c2ccccc2)c2cc(Cl)ccc21` (centres undefined), under setting [1], the AC50 is 12.6 µM [falling, partial curve].

Turning to `CCc1ccc2oc(C(=O)N(Cc3ccc(N(C)C)cc3)Cc3ccco3)c(C)c2c1`, the AC50 under setting [1] is 31.6 µM [falling, single point].

For `O=C1c2ccccc2-c2onc3c(N4CCN(C5CCCCC5)CC4)cc(NCCO)c1c23`, the AC50 under setting [1] was 25.1 µM [falling, partial curve].

As for `COc1ccc(CNC(=O)Cc2c(C(=O)O)c(C)cn2C)cc1`, the half-maximal activity concentration (AC50) under setting [1] is 0.0126 µM [rising, full curve].

Take `CSc1ccccc1N=Cc1nc(-c2ccccc2)oc1O`: under setting [1], the AC50 was 10 µM [falling, partial curve].

Regarding `O=C(COc1ccc(Cl)cc1Cl)NCc1ccco1`, the concentration at half-maximal activity (AC50) under setting [1] is 0.794 µM [rising, full curve].

Turning to `Cc1c(-c2ccccc2)c(=O)oc2ccc(OC(=O)N3CCOCC3)cc12`, the concentration at half-maximal activity (AC50) under setting [1] was 5.01 µM [falling, single point].

In the case of `Cc1cc(C)cc(OCCSc2nc3ccc(NC(=O)c4cccs4)cc3s2)c1`, the concentration at half-maximal activity (AC50) under setting [1] is 25.1 µM [falling, partial curve].

As for `CCOc1ccc(C(=O)Nc2c(C(=O)Nc3ccccc3OC)oc3ccccc23)cc1OCC`, the concentration at half-maximal activity (AC50) under setting [1] was 3.16 µM [rising, single point].

In the case of `O=C(Cn1cc(C(=O)C2CCCCC2)c2ccccc21)Nc1ccccc1Cl`, under setting [1], the AC50 is 12.6 µM [falling, partial curve].

`Nn1c(SCC(=O)NC2CCCCC2)nnc1-c1ccccc1`: the AC50 under setting [1] is 25.1 µM [falling, partial curve].

Consider `COc1ccc(CCNC(=O)c2ccc3c(c2)sc2nc(-c4ccccc4)cn23)cc1OC`, for which the AC50 under setting [1] was 20 µM [falling, single point].

On to `CCOC(=O)c1cc(-c2ccc(OC)cc2)n(CCC(=O)NCCc2ccccc2)c1C`, for which the AC50 under setting [1] is 39.8 µM [falling, partial curve].

Turning to `COc1ccc(Cc2nnc3n2N=C(c2cc4ccccc4o2)CS3)cc1OC`, the AC50 under setting [1] is 20 µM [falling, partial curve].

Turning to `CCC(C)C(NC(=O)c1ccccc1NC(=O)c1ccc(OC)cc1)C(=O)NCc1ccco1` (centres undefined), the AC50 under setting [1] is 10 µM [falling, partial curve].

Take `Cc1cc(OCC(=O)NCCc2nc3ccccc3[nH]2)cc(C)c1Cl`: the AC50 under setting [1] was 25.1 µM [falling, partial curve].

Consider `Cc1cccc(S(=O)(=O)Nc2nc3ccccc3nc2NCc2ccco2)c1`, for which the AC50 under setting [1] was 10 µM [falling, partial curve].

`Cc1ccc(CNC(=O)Cn2c(SCC(=O)Nc3ccc(F)cc3)nc3ccccc32)cc1`: the AC50 under setting [1] was 39.8 µM [falling, single point].

Regarding `COc1ccccc1Cc1nc(-c2ccc(Br)o2)no1`, the AC50 under setting [1] is 7.94 µM [falling, partial curve].

As to `Cc1ccc(CNC(=O)C(C)n2c(=O)cc(C(F)(F)F)c3c(C)nn(C)c32)cc1` (centres undefined), the AC50 under setting [1] is 3.98 µM [falling, partial curve].

Consider `Cc1cccc(C(=O)N2CCc3cc(CNC(=O)c4cc5ccccc5[nH]4)ccc32)c1`, for which, under setting [1], the AC50 was 1.26 µM [rising, partial curve].

Consider `Cc1ccc(S(=O)(=O)C(CNC(=O)c2c(F)cccc2F)c2ccco2)cc1` (centres undefined), for which the AC50 under setting [1] was 1.58 µM [rising, partial curve].

As to `Cc1cc(C)c(S(=O)(=O)NCCS(=O)(=O)N2CCN(c3ccccc3)CC2)c(C)c1`, the half-maximal activity concentration (AC50) under setting [1] is 6.31 µM [falling, partial curve].

Consider `NC1=NC(c2cn(-c3ccccc3)nc2-c2cccs2)n2c(nc3ccccc32)N1` (centres undefined), for which, under setting [1], the AC50 is 15.8 µM [falling, partial curve].

On to `COC(=O)c1ccccc1NC(=O)Cn1cnc2sc(C)c(S(=O)(=O)N3CCC(C)CC3)c2c1=O`, for which the AC50 under setting [1] is 5.01 µM [falling, full curve].

On to `COc1ccc(NC(=O)/C=C\C(=O)N(c2ccc(C(C)C)cc2)C(C(=O)NCc2ccco2)c2ccc(C)cc2)cc1` (centres undefined), for which the AC50 under setting [1] is 25.1 µM [falling, partial curve].

For the compound `CCOc1ccc(C2C(=O)N(C3CCCCCC3)CC(=O)N2Cc2ccccc2)cc1OC` (centres undefined), the half-maximal activity concentration (AC50) under setting [1] is 3.98 µM [rising, single point].

On to `CCOC(=O)c1cccc(NC(=O)c2ncoc2-c2ccco2)c1`, for which the AC50 under setting [1] was 2 µM [rising, partial curve, poor fit].

Consider `CN1CCN(CCC=C2c3ccccc3Sc3ccc(S(=O)(=O)N(C)C)cc32)CC1`, for which the AC50 under setting [1] was 15.8 µM [falling, partial curve] [measured here: IkB-luc green channel].

On to `O=C(N1CCN(c2ccccc2F)CC1)C12CC3CC(CC(C3)C1)C2`, for which the AC50 under setting [1] was 20 µM [falling, partial curve].

In the case of `CCc1ccc(CNC(=O)CCCn2ccc3cc(S(=O)(=O)N4CCCC4)ccc32)cc1`, the AC50 under setting [1] was 12.6 µM [falling, partial curve].

Turning to `Cn1c(=O)c(C(=O)Nc2cnccn2)c(O)c2ccccc21`, under setting [1], the AC50 was 39.8 µM [falling, single point].

Turning to `CCOc1ccc(CCNC(=O)c2cc3c(-c4ccccc4F)nn(C)c3s2)cc1`, under setting [1], the AC50 was 10 µM [falling, partial curve].

Take `Cc1ccc(S(=O)(=O)c2nc(-c3ccc(F)cc3)oc2SCC(=O)NC2CCCCC2)cc1`: the concentration at half-maximal activity (AC50) under setting [1] is 1.26 µM [falling, partial curve].

As for `CCS(=O)(=O)N1CCc2cc(C(=O)NCc3ccccc3OC)ccc21`, under setting [1], the AC50 was 31.6 µM [falling, single point].

As for `COc1cccc(NC(=O)C2CCC(CNS(=O)(=O)c3ccc4c(c3)CCCC(=O)N4)CC2)c1` (centres undefined), the AC50 under setting [1] is 5.01 µM [falling, partial curve].

Consider `COc1ccc(NC(=O)CN2C(=O)COc3ccc(S(=O)(=O)N4CCOCC4)cc32)cc1`, for which the AC50 under setting [1] is 2.51 µM [rising, partial curve].

Turning to `COc1cccc(NC(=O)C2CCN(c3ccc(Sc4ccc(C)cc4)nn3)CC2)c1`, under setting [1], the concentration at half-maximal activity (AC50) is 1 µM [falling, full curve].

In the case of `Cc1nnc(SCC(=O)n2c3c(c4ccccc42)CCCC3)s1`, under setting [1], the half-maximal activity concentration (AC50) is 0.0398 µM [falling, full curve].

On to `CCc1ccc2oc(-c3ccc(C)c(NC(=O)/C=C/c4ccco4)c3)nc2c1`, for which the AC50 under setting [1] is 0.251 µM [falling, full curve].

`Cc1sc2ncn(CC(=O)N3CCN(c4ccccc4F)CC3)c(=O)c2c1S(=O)(=O)N1CCC(C)CC1`: under setting [1], the AC50 is 12.6 µM [falling, partial curve].

Take `Cc1ccc2nc(/C(C#N)=C/c3ccccc3F)[nH]c2c1`: the AC50 under setting [1] was 15.8 µM [falling, partial curve].

One may read the AC50 as the concentration at which the activity in the assay is half-maximal.
